Measured values reported in patent US20200277328 (published 2020).

What was measured:
[1] = general procedure: Fmoc solid-phase peptide synthesis; Rink Amide; DIC/HOBt (first Lys loading: DIC/HOAt or HBTU/HOBt/DIPEA); settings: whole synthesis, scale 150 mmol, salt conversion performed (salt not given)
[2] = general procedure: Fmoc solid-phase peptide synthesis; Rink Amide resin, Rink Amide-MBHA resin, Rink Amide-AM resin, or Siber resin; DIC/HOBt (first Lys loading: DIC/HOAt or HBTU/HOBt/DIPEA); settings: salt conversion performed (salt not given); for final HPLC purity / step yield: purification step; for final HPLC purity / crude HPLC purity: 220 nm; for crude HPLC purity / crude yield: whole synthesis, scale of the general procedure 150-230 mmol
[3] = general procedure: Fmoc solid-phase peptide synthesis; Rink Amide-AM; DIC/HOBt (first Lys loading: DIC/HOAt or HBTU/HOBt/DIPEA); settings: whole synthesis, salt conversion performed (salt not given)
[4] = general procedure: Fmoc solid-phase peptide synthesis; Rink Amide-MBHA; DIC/HOBt (first Lys loading: DIC/HOAt or HBTU/HOBt/DIPEA); settings: whole synthesis, salt conversion performed (salt not given)
[5] = general procedure: Fmoc solid-phase peptide synthesis; Siber resin; DIC/HOBt (first Lys loading: DIC/HOAt or HBTU/HOBt/DIPEA); settings: whole synthesis, scale 54 mmol, salt conversion performed (salt not given)

## lixisenatide
[1]
  crude mass: 251 g
[2]; run 1
  final HPLC purity: 99.3%
  step yield: 28.8%
  crude HPLC purity: 69.1%
  crude yield: 99.4%
[2]; run 2
  final HPLC purity: 99.1%
  step yield: 26.4%
  crude HPLC purity: 66.6%
  crude yield: 101.2%
[2]; run 3
  final HPLC purity: 99.2%
  step yield: 27.4%
  crude HPLC purity: 68.4%
  crude yield: 98.9%
[2]; run 4
  final HPLC purity: 99.3%
  step yield: 27.1%
  crude HPLC purity: 67.9%
  crude yield: 102.6%
[2]; run 5
  final HPLC purity: 99.3%
  step yield: 28.1%
  crude HPLC purity: 67.1%
  crude yield: 100.6%
[2]; run 6
  final HPLC purity: 99.2%
  step yield: 25.8%
  crude HPLC purity: 61.8%
  crude yield: 99.6%
[2]; run 7
  final HPLC purity: 99.1%
  step yield: 26.6%
  crude HPLC purity: 59.6%
  crude yield: 100.8%
[2]; run 8
  final HPLC purity: 99.2%
  step yield: 27.9%
  crude HPLC purity: 68.9%
  crude yield: 97.6%
[2]; run 9
  final HPLC purity: 98.6%
  step yield: 15.4%
  crude HPLC purity: 44.5%
  crude yield: 96.8%
[3]; scale 70 mmol, run 1
  crude mass: 338.9 g
[3]; scale 70 mmol, run 2
  crude mass: 341.3 g
[3]; scale 70 mmol, run 3
  crude mass: 335.6 g
[3]; scale 105 mmol
  crude mass: 487 g
[3]; scale 230 mmol, run 2
  crude mass: 370.6 g
[4]; scale 32 mmol
  crude mass: 156 g
[4]; scale 230 mmol, run 1
  crude mass: 341 g
[5]
  crude mass: 241 g
